Experimental data as given in publication PMC12390933.
Results are given in words; binding and its absence hold for the method and conditions named. Some binding calls cover weakened binding; strength is not graded here. Where a sequence is shown, tags or fusion partners need not be part of it.

How the values were obtained:
Test in all cases: non-reducing, non-heated SDS-PAGE with western blot; cell lysates in RIPA buffer (50 μg) mixed with SDS sample buffer without 2-mercaptoethanol and without the heating step (90 °C, 3 min), 7.5% gel, room temperature, 70 to 150 min; western blot with anti-HA or anti-UGT2B7; SDS-stable oligomer bands, greatly decreased when the reducing agent is added
[1] = molecular target: full-length and HA-tag-free UGT2B7 (wild type) (UniProt P16662)
[2] = molecular target: full-length HA-tag-free UGT2B7 C127A (UniProt P16662)
[3] = molecular target: full-length HA-tag-free UGT2B7 C156A (UniProt P16662)
[4] = molecular target: full-length HA-tag-free UGT2B7 C282A (UniProt P16662)
[5] = molecular target: full-length HA-tag-free UGT2B7 C127/156A (UniProt P16662)
[6] = molecular target: full-length HA-tag-free UGT2B7 C127/282A (UniProt P16662)
[7] = molecular target: UGT2B7-HA expressed in HEK293 cells (UniProt P16662)
[8] = molecular target: full-length HA-tag-free UGT2B7 C156/282A (UniProt P16662)

B1: full-length and HA-tag-free UGT2B7 (wild type) (enzyme, UniProt P16662 24-529)
chain: GKVLVWAAEYSHWMNIKTILDELIQRGHEVTVLASSASILFDPNNSSALKIEIYPTSLTKTELENFIMQQIKRWSDLPKDTFWLYFSQVQEIMSIFGDITRKFCKDVVSNKKFMKKVQESRFDVIFADAIFPCSELLAELFNIPFVYSLSFSPGYTFEKHSGGFIFPPSYVPVVMSELTDQMTFMERVKNMIYVLYFDFWFEIFDMKKWDQFYSEVLGRPTTLSETMGKADVWLIRNSWNFQFPYPLLPNVDFVGGLHCKPAKPLPKEMEDFVQSSGENGVVVFSLGSMVSNMTEERANVIASALAQIPQKVLWRFDGNKPDTLGLNTRLYKWIPQNDLLGHPKTRAFITHGGANGIYEAIYHGIPMVGIPLFADQPDNIAHMKARGAAVRVDFNTMSSTDLLNALKRVINDPSYKENVMKLSRIQHDQPVKPLDRAVFWIEFVMRHKGAKHLRVAAHDLTWFQYHSLDVIGFLLVCVATVIFIVTKCCLFCFWKFARKAKKGKND
B1 was tested, and the binding [1] was “binds”.

B2: full-length HA-tag-free UGT2B7 C127A (enzyme, UniProt P16662 24-529)
chain: GKVLVWAAEYSHWMNIKTILDELIQRGHEVTVLASSASILFDPNNSSALKIEIYPTSLTKTELENFIMQQIKRWSDLPKDTFWLYFSQVQEIMSIFGDITRKFAKDVVSNKKFMKKVQESRFDVIFADAIFPCSELLAELFNIPFVYSLSFSPGYTFEKHSGGFIFPPSYVPVVMSELTDQMTFMERVKNMIYVLYFDFWFEIFDMKKWDQFYSEVLGRPTTLSETMGKADVWLIRNSWNFQFPYPLLPNVDFVGGLHCKPAKPLPKEMEDFVQSSGENGVVVFSLGSMVSNMTEERANVIASALAQIPQKVLWRFDGNKPDTLGLNTRLYKWIPQNDLLGHPKTRAFITHGGANGIYEAIYHGIPMVGIPLFADQPDNIAHMKARGAAVRVDFNTMSSTDLLNALKRVINDPSYKENVMKLSRIQHDQPVKPLDRAVFWIEFVMRHKGAKHLRVAAHDLTWFQYHSLDVIGFLLVCVATVIFIVTKCCLFCFWKFARKAKKGKND
B2 was tested, and the binding [2] was “binds”.

B3: full-length HA-tag-free UGT2B7 C156A (enzyme, UniProt P16662 24-529)
chain: GKVLVWAAEYSHWMNIKTILDELIQRGHEVTVLASSASILFDPNNSSALKIEIYPTSLTKTELENFIMQQIKRWSDLPKDTFWLYFSQVQEIMSIFGDITRKFCKDVVSNKKFMKKVQESRFDVIFADAIFPASELLAELFNIPFVYSLSFSPGYTFEKHSGGFIFPPSYVPVVMSELTDQMTFMERVKNMIYVLYFDFWFEIFDMKKWDQFYSEVLGRPTTLSETMGKADVWLIRNSWNFQFPYPLLPNVDFVGGLHCKPAKPLPKEMEDFVQSSGENGVVVFSLGSMVSNMTEERANVIASALAQIPQKVLWRFDGNKPDTLGLNTRLYKWIPQNDLLGHPKTRAFITHGGANGIYEAIYHGIPMVGIPLFADQPDNIAHMKARGAAVRVDFNTMSSTDLLNALKRVINDPSYKENVMKLSRIQHDQPVKPLDRAVFWIEFVMRHKGAKHLRVAAHDLTWFQYHSLDVIGFLLVCVATVIFIVTKCCLFCFWKFARKAKKGKND
B3 was tested, and the binding [3] was “binds”.

B4: full-length HA-tag-free UGT2B7 C282A (enzyme, UniProt P16662 24-529)
chain: GKVLVWAAEYSHWMNIKTILDELIQRGHEVTVLASSASILFDPNNSSALKIEIYPTSLTKTELENFIMQQIKRWSDLPKDTFWLYFSQVQEIMSIFGDITRKFCKDVVSNKKFMKKVQESRFDVIFADAIFPCSELLAELFNIPFVYSLSFSPGYTFEKHSGGFIFPPSYVPVVMSELTDQMTFMERVKNMIYVLYFDFWFEIFDMKKWDQFYSEVLGRPTTLSETMGKADVWLIRNSWNFQFPYPLLPNVDFVGGLHAKPAKPLPKEMEDFVQSSGENGVVVFSLGSMVSNMTEERANVIASALAQIPQKVLWRFDGNKPDTLGLNTRLYKWIPQNDLLGHPKTRAFITHGGANGIYEAIYHGIPMVGIPLFADQPDNIAHMKARGAAVRVDFNTMSSTDLLNALKRVINDPSYKENVMKLSRIQHDQPVKPLDRAVFWIEFVMRHKGAKHLRVAAHDLTWFQYHSLDVIGFLLVCVATVIFIVTKCCLFCFWKFARKAKKGKND
For B4, the binding [4] was “binds”.

B5: full-length HA-tag-free UGT2B7 C127/156A (enzyme, UniProt P16662 24-529)
chain: GKVLVWAAEYSHWMNIKTILDELIQRGHEVTVLASSASILFDPNNSSALKIEIYPTSLTKTELENFIMQQIKRWSDLPKDTFWLYFSQVQEIMSIFGDITRKFAKDVVSNKKFMKKVQESRFDVIFADAIFPASELLAELFNIPFVYSLSFSPGYTFEKHSGGFIFPPSYVPVVMSELTDQMTFMERVKNMIYVLYFDFWFEIFDMKKWDQFYSEVLGRPTTLSETMGKADVWLIRNSWNFQFPYPLLPNVDFVGGLHCKPAKPLPKEMEDFVQSSGENGVVVFSLGSMVSNMTEERANVIASALAQIPQKVLWRFDGNKPDTLGLNTRLYKWIPQNDLLGHPKTRAFITHGGANGIYEAIYHGIPMVGIPLFADQPDNIAHMKARGAAVRVDFNTMSSTDLLNALKRVINDPSYKENVMKLSRIQHDQPVKPLDRAVFWIEFVMRHKGAKHLRVAAHDLTWFQYHSLDVIGFLLVCVATVIFIVTKCCLFCFWKFARKAKKGKND
With B5 the binding [5] was “binds”.

B6: full-length HA-tag-free UGT2B7 C127/282A (enzyme, UniProt P16662 24-529)
chain: GKVLVWAAEYSHWMNIKTILDELIQRGHEVTVLASSASILFDPNNSSALKIEIYPTSLTKTELENFIMQQIKRWSDLPKDTFWLYFSQVQEIMSIFGDITRKFAKDVVSNKKFMKKVQESRFDVIFADAIFPCSELLAELFNIPFVYSLSFSPGYTFEKHSGGFIFPPSYVPVVMSELTDQMTFMERVKNMIYVLYFDFWFEIFDMKKWDQFYSEVLGRPTTLSETMGKADVWLIRNSWNFQFPYPLLPNVDFVGGLHAKPAKPLPKEMEDFVQSSGENGVVVFSLGSMVSNMTEERANVIASALAQIPQKVLWRFDGNKPDTLGLNTRLYKWIPQNDLLGHPKTRAFITHGGANGIYEAIYHGIPMVGIPLFADQPDNIAHMKARGAAVRVDFNTMSSTDLLNALKRVINDPSYKENVMKLSRIQHDQPVKPLDRAVFWIEFVMRHKGAKHLRVAAHDLTWFQYHSLDVIGFLLVCVATVIFIVTKCCLFCFWKFARKAKKGKND
In the case of B6, the binding [6] is reported as “binds”.

B7: UGT2B7-HA expressed in HEK293 cells (enzyme, UniProt P16662 24-529)
chain: GKVLVWAAEYSHWMNIKTILDELIQRGHEVTVLASSASILFDPNNSSALKIEIYPTSLTKTELENFIMQQIKRWSDLPKDTFWLYFSQVQEIMSIFGDITRKFCKDVVSNKKFMKKVQESRFDVIFADAIFPCSELLAELFNIPFVYSLSFSPGYTFEKHSGGFIFPPSYVPVVMSELTDQMTFMERVKNMIYVLYFDFWFEIFDMKKWDQFYSEVLGRPTTLSETMGKADVWLIRNSWNFQFPYPLLPNVDFVGGLHCKPAKPLPKEMEDFVQSSGENGVVVFSLGSMVSNMTEERANVIASALAQIPQKVLWRFDGNKPDTLGLNTRLYKWIPQNDLLGHPKTRAFITHGGANGIYEAIYHGIPMVGIPLFADQPDNIAHMKARGAAVRVDFNTMSSTDLLNALKRVINDPSYKENVMKLSRIQHDQPVKPLDRAVFWIEFVMRHKGAKHLRVAAHDLTWFQYHSLDVIGFLLVCVATVIFIVTKCCLFCFWKFARKAKKGKND
In the case of B7, the binding [7] is reported as “binds”.

B8: full-length HA-tag-free UGT2B7 C156/282A (enzyme, UniProt P16662 24-529)
chain: GKVLVWAAEYSHWMNIKTILDELIQRGHEVTVLASSASILFDPNNSSALKIEIYPTSLTKTELENFIMQQIKRWSDLPKDTFWLYFSQVQEIMSIFGDITRKFCKDVVSNKKFMKKVQESRFDVIFADAIFPASELLAELFNIPFVYSLSFSPGYTFEKHSGGFIFPPSYVPVVMSELTDQMTFMERVKNMIYVLYFDFWFEIFDMKKWDQFYSEVLGRPTTLSETMGKADVWLIRNSWNFQFPYPLLPNVDFVGGLHAKPAKPLPKEMEDFVQSSGENGVVVFSLGSMVSNMTEERANVIASALAQIPQKVLWRFDGNKPDTLGLNTRLYKWIPQNDLLGHPKTRAFITHGGANGIYEAIYHGIPMVGIPLFADQPDNIAHMKARGAAVRVDFNTMSSTDLLNALKRVINDPSYKENVMKLSRIQHDQPVKPLDRAVFWIEFVMRHKGAKHLRVAAHDLTWFQYHSLDVIGFLLVCVATVIFIVTKCCLFCFWKFARKAKKGKND
For B8, the binding [8] was “binds”.
